# Where “and” joins values, the source holds several entries; their conditions need not be identical. Equal entries are not always repeated. Hit rate of the full screen: of about 320,000 compounds, about 22,000 (6.9%) were called active. The shares of active, inactive and inconclusive entries below differ from those in the screen. Calls come from the whole dose curve; as a rule, active = well fitted inhibition curve with a large enough effect; inconclusive = small, poorly fitted or top-dose-only effect, or another doubt; inactive = no such curve, though single readings can be large or run the other way. Potencies of inconclusive entries are doubtful fits and often do not repeat.
# Assay: Primary qHTS for delayed death inhibitors of the malarial parasite plastid, 96 hour incubation
# Details: P. falciparum luciferase reporter growth; series mostly up to 28.7 µM
# In short: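 Two parasite generations (96 h, 37 C, 5% CO2) of compound exposure in infected erythrocytes (0.05% parasitemia, 2% hematocrit). Luciferase-reporter P. falciparum; decreased luminescence indicates inhibited growth, aimed at apicoplast-acting delayed death.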
# Potency is the fitted concentration of half-maximal effect.
row,SMILES,Potency
1,CC1CCN(C(=S)NC(=O)c2ccc(C(C)(C)C)cc2)CC1,"inconclusive: 10.4 µM [inhibitor, single point]"
2,CC(C)(Sc1cc(C(C)(C)C)c(O)c(C(C)(C)C)c1)Sc1cc(C(C)(C)C)c(O)c(C(C)(C)C)c1,active: 1.04 µM
3,O=C1CSc2ccc(S(=O)(=O)CCC(=O)NC3CCCCC3)cc2N1,"inconclusive: 18.5 µM [inhibitor, single point]"
4,CCN1CCCC1CNC(=O)C(=O)NC(C)C (stereo not drawn),inactive
5,CCOc1ccc2nc(SC3CC(=O)N(c4ccc(OC)cc4OC)C3=O)sc2c1 (stereo not drawn),inactive
6,CCOC(=O)C1CCN(C(=O)COc2ccc(S(=O)(=O)N3CCOCC3)cc2C)CC1,"inconclusive: 5.22 µM [inhibitor, partial curve]"
7,C=CCn1c(CSc2ccccc2[N+](=O)[O-])n[nH]c1=S,inactive
8,O=C1OC(OC2CCCCC2)(c2ccccc2)c2ccccc21 (stereo not drawn),"inconclusive: 18.5 µM [inhibitor, partial curve, poor fit]"
9,CCCNC(=O)C1CN(C(=O)c2nn(Cc3ccccc3)c(=O)c3ccccc23)c2ccccc2O1 (stereo not drawn),active: 11.7 µM
10,CCOc1ccc(/C(O)=C2/C(=O)C(=O)N(CCCN3CCOCC3)C2c2ccc(C)cc2)cc1C (stereo not drawn),inactive
11,CCN(CC)S(=O)(=O)c1cccc(C(=O)N/N=C/c2ccccc2OCC(=O)O)c1,inactive
12,C/C(=N\N1CCCCCC1)c1c(O)n(C2CCCCC2)c(=O)[nH]c1=O,active: 13.1 µM
13,Cc1ccc(CNC(=O)CNC(=O)[C@@H]2Cc3ccccc3CN2)cc1,inactive
14,COc1ccc(Cn2c(=S)[nH]c3cc(C(=O)NCc4cccnc4)ccc3c2=O)cc1,inactive
15,O=C(CSc1nncn1-c1cccnc1)N1CCOCC1,"inconclusive: 13.1 µM [inhibitor, partial curve, poor fit]"
16,COc1ccc(CC(=O)NC(C)c2nnc(SCCC(=O)Nc3ccccc3)n2C)cc1 (stereo not drawn),"inconclusive: 2.62 µM [inhibitor, single point]"
17,O=C(/C=C/c1ccc(S(=O)(=O)N2CCOCC2)cc1)NC(=S)NCCCn1ccnc1,"inconclusive: 10.4 µM [inhibitor, single point]"
18,CCn1c(-c2ccc(N(C)C)cc2)nc2ccccc21,"inconclusive: 11.7 µM [inhibitor, partial curve]"
19,COc1ccc(-c2nnc3ccc(SC(C(C)=O)C(C)=O)nn23)cc1OC,"inconclusive: 18.5 µM [inhibitor, single point]"
20,COc1ccccc1Cn1c(=O)c2ccccc2n2c(SCC(=O)N3CCCCC3)nnc12,"inconclusive: 9.28 µM [inhibitor, single point]"
21,O=C(CN1C(=O)NC2(CCCC2)C1=O)Nc1cc(Cl)ccc1N1CCOCC1,inactive
22,Cc1ccc(C)n1-c1ccc(N2CCOCC2)c([N+](=O)[O-])c1,"inconclusive: 3.29 µM [inhibitor, full curve]"
23,O=C(Nc1ccccc1C(=O)N1CCCC1)c1ccc(Cl)c([N+](=O)[O-])c1,"inconclusive: 16.5 µM [inhibitor, single point]"

# Taken from the entries so far for reference:
row,SMILES,Potency
21,O=C(CN1C(=O)NC2(CCCC2)C1=O)Nc1cc(Cl)ccc1N1CCOCC1,inactive
22,Cc1ccc(C)n1-c1ccc(N2CCOCC2)c([N+](=O)[O-])c1,"inconclusive: 3.29 µM [inhibitor, full curve]"
23,O=C(Nc1ccccc1C(=O)N1CCCC1)c1ccc(Cl)c([N+](=O)[O-])c1,"inconclusive: 16.5 µM [inhibitor, single point]"

# More structures follow.

row,SMILES,Potency
1,Cc1ccc(S(=O)(=O)c2nc(S(=O)(=O)c3ccccc3)sc2N2CCN(C)CC2)cc1,"inconclusive: 18.5 µM [inhibitor, single point]"
2,O=C(NC1CCN(Cc2ccccc2)CC1)c1ccccc1OCc1ccccc1,active: 9.28 µM
3,Cc1cc(=O)oc2cc(OCC(=O)N3CCC(C(N)=O)CC3)ccc12,inactive
4,CC(=O)N(O)CCCCCNC(=O)CCC(=O)N(O)CCCCCNC(=O)CCC(=O)N(O)CCCCCN,"inactive and inconclusive: 11.7 µM [inhibitor, single point]"
5,CCC(C)[C@H](NC(=O)[C@@H]1Cc2c([nH]c3ccccc23)C2c3ccccc3C(=O)N21)C(=O)NCC1CCCO1 (stereo partly drawn),"inconclusive: 6.57 µM [inhibitor, partial curve, poor fit]"
6,COc1ccc(CN2CCCC(C(=O)c3ccc(Cl)cc3)C2)c(O)c1 (stereo not drawn),inactive
7,CNc1ncc(C(=O)C(C)(C)C)s1,"inconclusive: 0.522 µM [inhibitor, partial curve, poor fit]"
8,CCOC(=O)CSc1nnc(NC(=O)C2CC(=O)N(c3ccc(F)cc3)C2)s1 (stereo not drawn),active: 14.7 µM
9,Cc1ccc2nc(C)cc(C(=O)N3CCCC(CO)(Cc4ccccc4C)C3)c2c1 (stereo not drawn),"inconclusive: 16.5 µM [inhibitor, single point]"
10,COc1ccc(-c2cc(C3CCN(CC(O)C(F)(F)F)CC3)[nH]n2)cc1 (stereo not drawn),inactive
11,O=C(Cn1ncc(Cl)c(Cl)c1=O)N1CCN(S(=O)(=O)c2ccc3ccccc3c2)CC1,"inconclusive: 8.28 µM [inhibitor, partial curve, poor fit]"
12,Cc1ccc(CCN2C(Nc3ccccc3)=NC[C@@H]2C)cc1,inactive
13,COc1ccc(-c2oc3ccccc3c2C(=O)Oc2ccccc2)cc1,"inconclusive: 16.5 µM [inhibitor, single point]"
14,O=C(NC1CCCCCCC1)c1c(O)c2ccccc2[nH]c1=O,"inconclusive: 18.5 µM [inhibitor, single point]"
15,COc1ccc(CCN=C(N)NS(=O)(=O)c2ccc(OC)cc2)cc1,"inconclusive: 18.5 µM [inhibitor, single point]"
16,CCCc1cc(=O)[nH]c2nnc(SCC(=O)Nc3ccc(C(C)=O)cc3)n12,"inconclusive: 10.4 µM [inhibitor, single point]"
17,CNC(=O)N(C)c1nnc(C(C)(C)C)s1,"inconclusive: 18.5 µM [inhibitor, single point]"
18,Cc1cc(C)n(C(=O)CCNC(=O)c2ccccc2Cl)n1,"inconclusive: 10.4 µM [inhibitor, single point]"
19,COc1cccc(-c2nnc(SC(C(=O)c3c[nH]c4ccccc34)c3ccccc3)n2C)c1 (stereo not drawn),active: 13.1 µM
20,Cc1ccc(Cl)cc1NC(=S)N1CCC(c2ccccc2)C1 (stereo not drawn),"inconclusive: 18.5 µM [inhibitor, single point]"
21,C/C(=N\NC1=NCCN1)c1ccc(Cl)cc1,active: 2.33 µM
22,O=C(CN1C(=O)c2cccnc2Oc2ccc(Cl)cc21)NCCc1ccccc1,"inconclusive: 3.7 µM [inhibitor, partial curve]"
23,COc1c(C)cc(C(=O)C2CCCN(Cc3cnc(C)s3)C2)cc1C (stereo not drawn),inactive

# In another format: results already given
row	SMILES	Potency
16	CCCc1cc(=O)[nH]c2nnc(SCC(=O)Nc3ccc(C(C)=O)cc3)n12	inconclusive: 10.4 µM [inhibitor, single point]
17	CNC(=O)N(C)c1nnc(C(C)(C)C)s1	inconclusive: 18.5 µM [inhibitor, single point]

# Later entries

row,SMILES,Potency
1,CCN(CC)CCCNc1ccc(-c2nnc(-c3ccc(OCC(C)C)cc3)o2)cn1,"inconclusive: 2.33 µM [inhibitor, partial curve, poor fit]"
2,COC(=O)c1cccc(NC(=O)NC23CC4CC(CC(C4)C2)C3)c1,"inconclusive: 2.62 µM [inhibitor, single point]"
3,COC(=O)c1sc(=S)n(-c2ccccc2)c1N,"inconclusive: 9.28 µM [inhibitor, partial curve]"
4,Cc1cccc(NC(=S)N2CCn3cccc3C2c2cccnc2)c1 (stereo not drawn),"inconclusive: 18.5 µM [inhibitor, single point]"
5,Cc1nn(-c2ccccc2)c2nc(-c3ccncc3)cc(C(=O)NCc3ccco3)c12,active: 10.4 µM
6,COc1cccc(NCCC(=O)c2cccc([N+](=O)[O-])c2)c1,"inconclusive: 4.15 µM [inhibitor, partial curve, poor fit]"
7,Cc1sc(NC(=O)c2ccco2)nc1-c1ccc2c(c1)CC(C)N2C(=O)C1CC1 (stereo not drawn),inactive
8,CC(=O)Nc1ccc(S(=O)(=O)NC2(C(F)(F)F)NC(=O)N(C3CCCCC3)C2=O)cc1 (stereo not drawn),inactive
9,C=CCNC(=O)/C(=C/c1ccccc1OCC)NC(=O)c1ccccc1,"inconclusive: 10.4 µM [inhibitor, single point]"
10,Nc1c(C(=O)NCc2cccs2)nnn1CC(=O)Nc1cccc(Cl)c1,"inconclusive: 0.0033 µM [inhibitor, full curve, poor fit]"
11,CC(C)(C)c1ccc(OCC(=O)NNC(=S)NC(=O)c2ccccc2[N+](=O)[O-])c(Br)c1,"inconclusive: 10.4 µM [inhibitor, single point]"
12,Cc1cc2ccccc2c(=O)n1CC(=O)NCC(=O)N1CCN(c2cccc(Cl)c2)CC1,inactive
13,CCOc1cc(C(=O)NC(=S)Nc2nc(C)cc(C)n2)cc(OCC)c1OCC,inactive
14,CC/C(CC(=O)C(F)(F)F)=N\NC(=O)/C(C#N)=C/N(C)C,"inconclusive: 18.5 µM [inhibitor, single point]"
15,O=C(COc1coc(CN2CCN(c3ccccc3F)CC2)cc1=O)N1CCc2ccccc21,"inconclusive: 2.33 µM [inhibitor, partial curve]"
16,COc1ccc(C(=O)NCc2cccnc2)cc1S(=O)(=O)N1CCCc2ccccc21,"inconclusive: 10.4 µM [inhibitor, single point]"
17,NS(=O)(=O)c1cc(C(=O)NCC2CCCCC2)ccc1Cl,"inconclusive: 9.28 µM [inhibitor, single point]"
18,O=C(CCn1c2c(c3ccccc31)CCCC2)NNC(=O)c1ccc([N+](=O)[O-])cc1,inactive
19,C/C(=N\NC(=O)c1c(Cl)c(C)nn1C)c1cccc(NC(=O)c2cccc(F)c2)c1,"inconclusive: 11.7 µM [inhibitor, single point]"
20,COc1ccc(CCNC(=O)C(=O)Nc2ccc3nc4n(c(=O)c3c2)CCCCC4)cc1OC,"inconclusive: 3.7 µM [inhibitor, partial curve]"
21,O=C(Nc1ccc(N2CCN(C(=O)c3ccc(Cl)cc3)CC2)cc1)c1ccc2c(c1)OCCO2,"inconclusive: 16.5 µM [inhibitor, partial curve, poor fit]"
22,CCC(CC)C(=O)Nc1ccc(C(=O)c2ccccc2)cc1,inactive

# From PubChem BioAssay AID504834 (National Center for Advancing Translational Sciences (NCATS), 2011)
